Measured values: patent publication US20150111822A1
No constants are given. Whether binding was seen depends on the method and setting. Some entries that bind do so weakly or less than the wild type.

Protein sequences, listed by entry. Tags and fused reporters are not part of them. Residues count along the entry.
UniProt P11276, residues 33-2477: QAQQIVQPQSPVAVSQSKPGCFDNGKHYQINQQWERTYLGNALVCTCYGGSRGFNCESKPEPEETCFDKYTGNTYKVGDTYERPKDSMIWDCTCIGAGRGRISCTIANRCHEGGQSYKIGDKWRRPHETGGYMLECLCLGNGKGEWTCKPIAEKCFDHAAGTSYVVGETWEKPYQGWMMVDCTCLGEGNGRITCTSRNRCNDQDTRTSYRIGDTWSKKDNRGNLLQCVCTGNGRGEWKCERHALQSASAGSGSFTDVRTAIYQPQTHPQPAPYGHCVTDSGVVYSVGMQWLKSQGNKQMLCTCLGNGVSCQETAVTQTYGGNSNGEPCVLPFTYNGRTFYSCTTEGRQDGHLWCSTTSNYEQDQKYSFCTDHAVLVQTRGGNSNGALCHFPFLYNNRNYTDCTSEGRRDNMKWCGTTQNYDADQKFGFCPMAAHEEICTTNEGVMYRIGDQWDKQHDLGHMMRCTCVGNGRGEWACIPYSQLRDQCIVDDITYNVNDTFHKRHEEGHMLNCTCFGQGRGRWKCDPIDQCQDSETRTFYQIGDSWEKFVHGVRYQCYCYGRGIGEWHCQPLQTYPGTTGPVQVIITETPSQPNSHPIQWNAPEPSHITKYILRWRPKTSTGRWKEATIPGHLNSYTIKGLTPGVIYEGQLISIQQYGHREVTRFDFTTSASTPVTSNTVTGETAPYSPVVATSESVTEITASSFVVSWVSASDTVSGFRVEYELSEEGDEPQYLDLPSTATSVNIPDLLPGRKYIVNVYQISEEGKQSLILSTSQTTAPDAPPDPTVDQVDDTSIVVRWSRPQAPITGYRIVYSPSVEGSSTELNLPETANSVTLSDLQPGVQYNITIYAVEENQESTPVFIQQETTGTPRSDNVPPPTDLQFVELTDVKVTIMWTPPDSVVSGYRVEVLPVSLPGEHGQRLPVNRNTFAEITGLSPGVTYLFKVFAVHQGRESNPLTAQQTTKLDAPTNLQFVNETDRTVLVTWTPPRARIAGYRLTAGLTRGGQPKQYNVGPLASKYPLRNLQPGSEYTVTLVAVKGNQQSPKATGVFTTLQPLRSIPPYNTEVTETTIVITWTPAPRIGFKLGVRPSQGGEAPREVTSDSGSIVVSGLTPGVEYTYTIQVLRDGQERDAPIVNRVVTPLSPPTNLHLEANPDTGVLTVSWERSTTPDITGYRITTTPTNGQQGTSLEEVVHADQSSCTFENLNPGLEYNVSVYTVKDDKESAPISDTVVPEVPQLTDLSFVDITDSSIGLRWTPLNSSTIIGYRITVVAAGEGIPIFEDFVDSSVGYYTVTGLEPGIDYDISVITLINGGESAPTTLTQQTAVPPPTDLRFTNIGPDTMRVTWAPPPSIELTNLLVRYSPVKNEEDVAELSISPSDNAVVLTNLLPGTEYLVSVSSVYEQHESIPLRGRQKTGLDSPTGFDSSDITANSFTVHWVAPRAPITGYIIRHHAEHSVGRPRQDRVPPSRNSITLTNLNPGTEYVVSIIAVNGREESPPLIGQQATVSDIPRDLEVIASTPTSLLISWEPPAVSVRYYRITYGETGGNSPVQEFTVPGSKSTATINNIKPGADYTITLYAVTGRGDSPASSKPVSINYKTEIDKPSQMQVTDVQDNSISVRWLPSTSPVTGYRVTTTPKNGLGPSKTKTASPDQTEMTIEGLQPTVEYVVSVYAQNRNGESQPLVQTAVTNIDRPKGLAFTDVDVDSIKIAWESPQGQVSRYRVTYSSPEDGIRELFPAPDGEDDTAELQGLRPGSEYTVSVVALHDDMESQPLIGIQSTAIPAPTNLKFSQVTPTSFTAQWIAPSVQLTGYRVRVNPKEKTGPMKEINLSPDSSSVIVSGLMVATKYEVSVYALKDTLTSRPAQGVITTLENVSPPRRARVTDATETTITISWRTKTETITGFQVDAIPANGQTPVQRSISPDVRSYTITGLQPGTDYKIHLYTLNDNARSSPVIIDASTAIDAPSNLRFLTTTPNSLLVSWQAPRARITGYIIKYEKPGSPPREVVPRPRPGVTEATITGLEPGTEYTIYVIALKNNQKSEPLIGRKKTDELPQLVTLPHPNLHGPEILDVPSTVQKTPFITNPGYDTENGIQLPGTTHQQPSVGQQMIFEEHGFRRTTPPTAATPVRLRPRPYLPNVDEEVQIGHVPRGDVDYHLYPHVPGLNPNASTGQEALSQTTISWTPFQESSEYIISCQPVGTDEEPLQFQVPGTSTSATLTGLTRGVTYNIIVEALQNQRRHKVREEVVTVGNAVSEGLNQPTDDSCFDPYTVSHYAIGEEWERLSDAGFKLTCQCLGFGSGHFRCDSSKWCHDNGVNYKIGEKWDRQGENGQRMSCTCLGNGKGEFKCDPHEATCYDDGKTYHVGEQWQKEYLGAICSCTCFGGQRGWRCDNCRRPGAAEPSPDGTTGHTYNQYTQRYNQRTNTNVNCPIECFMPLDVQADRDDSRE

Assays:
[1] = molecular target: T1, endogenous Syndecan 4 (Sdc4) on mouse satellite cells and primary myoblasts (mouse) (UniProt O35988); assay: in-situ PLA (FIG. 19C)
T1 sequence (looked up): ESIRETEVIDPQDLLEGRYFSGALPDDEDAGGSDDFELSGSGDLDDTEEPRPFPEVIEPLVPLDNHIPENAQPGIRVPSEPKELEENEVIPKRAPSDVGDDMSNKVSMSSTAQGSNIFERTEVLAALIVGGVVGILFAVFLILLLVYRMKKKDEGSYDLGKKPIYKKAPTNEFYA

[2] = molecular target: T1, endogenous Syndecan 4 (Sdc4) on mouse satellite cells and primary myoblasts (mouse); assay: immunostaining co-localisation (FIG. 9C)
[3] = molecular target: T1, endogenous Syndecan 4 (Sdc4) on mouse satellite cells and primary myoblasts (mouse); assay: immunostaining co-localisation on 42 h activated satellite cells on floating fibers (FIG. 9C)
[4] = molecular target: T1, endogenous Syndecan 4 (Sdc4) on mouse satellite cells and primary myoblasts (mouse); assay: in-situ PLA with Sdc4 and FN antibodies on satellite cells on cultured myofibers; reactivity abrogated by siSdc4

- binding [1]: binds
- binding [2]: binds
- binding [3]: binds
- binding [4]: binds
Substance: fibronectin (FN) on activated satellite cells in myofiber culture (from UniProt P11276 33-2477) (ligand)
